Construct, isoform or probe ends are uncertain for at least one entry.
Biological target: DnaA (Escherichia coli (gene amplified from MG1655)) (UniProt P03004)
Assay: EMSA
Details: 2 mM ATP, complex at as low as 0.16 pmol DnaA, EMSA: DnaA with 5'-FAM-oriC, 5 min at 20 C, 5% native PAGE, recombinant protein, protein details: 6xHis (pET22b), label: 5'-FAM (both primers printed with 5'FAM), probe letters rebuilt from the primers and the genome

By UniProt entry, the sequences of proteins in these tests, tags left out. Where a name states a change or a piece, a line headed by the entry shows the natural chain unless it says otherwise.
UniProt P03004: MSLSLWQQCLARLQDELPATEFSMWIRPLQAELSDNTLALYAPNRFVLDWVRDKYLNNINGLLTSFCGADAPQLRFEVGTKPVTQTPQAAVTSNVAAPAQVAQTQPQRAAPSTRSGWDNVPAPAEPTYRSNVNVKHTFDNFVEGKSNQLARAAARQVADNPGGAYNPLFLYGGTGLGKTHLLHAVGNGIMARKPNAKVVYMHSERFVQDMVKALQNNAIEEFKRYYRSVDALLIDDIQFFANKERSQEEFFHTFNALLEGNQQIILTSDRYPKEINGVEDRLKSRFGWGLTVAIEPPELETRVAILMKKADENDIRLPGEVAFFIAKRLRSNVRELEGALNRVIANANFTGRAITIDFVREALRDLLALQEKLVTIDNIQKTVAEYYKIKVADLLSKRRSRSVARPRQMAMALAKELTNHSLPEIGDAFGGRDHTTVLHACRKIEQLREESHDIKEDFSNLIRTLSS

CCCGGGCCGTGGATTCTACTCAACTTTGTCGGCTTGAGAAAGACCCGGGATCCTGGGTATTAAAAAGAAGATCTATTTATTTAGAGATCTGTTCTATTGTGATCTCTTATTAGGATCGCACTGCCCTGTGGATAACAAGGATCCGGCTTTTAAGATCAACAACCTGGAAAGGATCATTAACTGTGAATGATCGGTGATCCTGGACCGTATAAGCTGGGATCAGAATGAGGGGTTATACACAACTCAAAAACTGAACAACCGTTGTTCCTTGGATAACTACCGGTTGATCCAAGCTTCCTGACAGAGTTATCCACAGTAGATCGCACGATCTGTATACTTATTTGAGTAAATTAATCCACGATCCCAGCCATTCTTCTGCCGGATCTTCCGGAATGTCGTGATCAAGAATGTTGATCTTCAGTGTTTCGCCTGTCTGTTTTGCACCGGAATCTTTGAGTTCTGCCTCGAG (double strand) [5'-FAM-oriC fragment]
binding result: binds

Source: publication PMC4971506
